According to paper PMC3401230, “The Crystal Structures of Dystrophin and Utrophin Spectrin Repeats: Implications for Domain Boundaries” (PLoS ONE, 2012):
These are yes or no findings as the source states them, for the method shown.

B1: Utrophin N-terminal spectrin repeat 1 (domain or fragment, UniProt G3V7L1 308-425)
chain: DMDLDSYQIALEEVLTWLLSAEDTFQEQDDISDDVEDVKEQFATHETFMMELTAHQSSVGSVLQAGNQLMTQGTLSDEEEFEIQEQMTLLNARWEALRVESMERQSRLHDALMELQKK
B2: Dystrophin N-terminal (repeat 1) spectrin repeat (domain or fragment, human, UniProt P11532 338-456, looked up)
chain: EVNLDRYQTALEEVLSWLLSAEDTLQAQGEISNDVEVVKDQFHTHEGYMMDLTAHQGRVGNILQLGSKLIGTGKLSEDEETEVQEQMNLLNSRWECLRVASMEKQSNLHRVLMDLQNQK
notes: dystrophin, human, residues 338-456 (first spectrin repeat); Without a reducing agent part of the protein is a dimer linked by a disulphide bond between C433 of each molecule; The model in PDB 3UUN holds residues 338-453 (monomer A) and 339-452 (monomer B); Tag and cleavage are told only as 'prepared in an equivalent manner' to Utr-SR1; also called Dys-SR1; source: E. coli BL21(DE3), purified in …

Columns and labels:
[1] = target: Utrophin N-terminal spectrin repeat 1 (rat) (UniProt G3V7L1); assay: crystal structure; X-ray; Utr-SR1 P2(1)2(1)2(1), 1.95 Å, two molecules in the asymmetric unit; Dys-SR1 P3(2)21, 2.3 Å, two molecules in the asymmetric unit, crystallised without reducing agent; both purified
[2] = target: Utrophin N-terminal spectrin repeat 1 (rat) (UniProt G3V7L1); assay: SEC; Superdex 75 HR 30/10; Utr-SR1 in 20 mM Tris pH 8.0, 50 mM NaCl; Dys-SR1 in PBS; no DTT added; both purified
[3] = target: Dystrophin N-terminal (repeat 1) spectrin repeat (human) (UniProt P11532); assay: SEC; analytical size exclusion chromatography of Dys-SR1 after reduction with 5 mM DTT; both purified

| Binder | binding [1] | binding [2] | binding [3] |
| --- | --- | --- | --- |
| B1 | no binding | no binding |  |
| B2 |  |  | no binding (condition: with 5 mM DTT) |
